In patent publication US6838445B1 (Kyogo Itoh, priority 1998, dated 2005):
Where no end group is shown, it is not given here.

Experiments:
[1] = general procedure: Fmoc solid-phase peptide synthesis; Fmoc-Phe-Alko Resin; conditions: whole synthesis, scale 100 mg resin
[2] = general procedure: Fmoc solid-phase peptide synthesis; Fmoc-Leu-Alko Resin; conditions: whole synthesis, scale 100 mg resin

| Sequence | isolated mass [1] [mg] | isolated mass [2] [mg] |
| --- | --- | --- |
| AFRQLSHRF | 18.4 |  |
| KMKTERRMKKL |  | 38.1 |
| RMKKLDEEAL |  | 24.6 |
| RMKKLDEEALL |  | 28.8 |
